Assay results: PubChem BioAssay AID2685 (National Center for Advancing Translational Sciences (NCATS), 2010)
The list shows a part of the results. Shown are side measurements of this screen, not its main read-out; they come without a call. Most of these compounds were active or inconclusive in the main read-out, so they are no random draw. Words in brackets tell the shape of the fitted curve; partial curves, single points and poor fits give uncertain potencies.

Assay: qHTS Assay for Lipid Storage Modulators in Drosophila S3 Cells;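 on cell number change: cells counted by Cell Tracker Red CMTPX staining in the red channel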
Settings: BODIPY lipid droplet fluorescence, 18-24 h; for cell number change: measured here: cell count max response, cells fed with added oleic acid
Outline: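 Drosophila S3 cells got compounds at several concentrations plus oleic acid (400 uM solution). Laser-scanning cytometry with 488 nm excitation read lipid droplets at 500-530 nm and cells at 575-640 nm. Percent activity was relative to 20 uM Triacsin C.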

[1] = measured here: cell number channel AC50, cells fed with added oleic acid
[2] = measured here: lipid fluorescence (Fed channel) AC50, cells fed with added oleic acid

Compound | cell number change [%] | AC50 [1] | AC50 [2]
CN(C)N=Nc1ccc(S(=O)(=O)NC(Cc2ccccc2)C(=O)O)cc1 (stereo not given) | 18.9 |  | 
O=C(NCCCl)Nc1ccccc1OCCOc1ccccc1NC(=O)NCCCl | -14.3 |  | 
COc1ccc(Br)cc1CNC(=O)c1ccc2c(c1)N(C)CCS2 | -31.1 | 32.6 µM [falling, single point] | 
O=C(O/N=C/C1=C(Cl)c2ccccc2CC1)c1ccc(F)cc1 | -6.96 |  | 
COc1ccc(C(=O)Nc2ccccc2C(=O)NCc2ccco2)cc1OC | -8.4 |  | 
Cc1ccc(OCc2ccc(C(=O)Nc3nc4ccccc4n3Cc3ccccc3)o2)c([N+](=O)[O-])c1 | 31.6 | 0.411 µM [rising, full curve] | 2.31 µM [rising, partial curve]
CNc1nccc(-c2ccc(Cl)cc2)c1C#N | -25.1 | 0.517 µM [falling, full curve, poor fit] | 
CCOc1ccccc1N1CCN(C(=S)NC(=O)C23CC4CC(CC(C4)C2)C3)CC1 | 5.87 |  | 0.146 µM [rising, full curve]
Nn1c(Cc2cccc3ccccc23)nnc1SCC(=O)NC1CCS(=O)(=O)C1 (stereo not given) | -13.7 |  | 0.116 µM [falling, full curve]
Cc1noc(C)c1COc1ccc(C(=O)OC(C)C(=O)Nc2ccc(S(=O)(=O)N3CCOCC3)cc2)cc1 (stereo not given) | -2.5 |  | 
COc1ccc(CCNC(=O)C(C)OC(=O)c2nsc(Cl)c2Cl)cc1OC (stereo not given) |  |  | 29.1 µM [falling, single point]
O=C(O)CCCN1C(=O)/C(=C/c2cn(-c3ccccc3)nc2-c2cccs2)SC1=S | -28.5 |  | 20.6 µM [falling, single point]
Cc1ccsc1-c1nc(-c2ccccc2)c(-c2ccccc2)[nH]1 | -17.5 |  | 
Cc1nnc(NC(=O)CSCc2ccccc2)s1 | 38.4 | 0.0058 µM [rising, full curve, poor fit] | 
CCOC(=O)C1CCCN(c2nc3ccccc3nc2C(C#N)C(=O)NCc2ccccc2)C1 (stereo not given) | 66.8 | 1.03 µM [rising, full curve] | 
O=C(CCn1ccc2ccccc21)NC1CCCc2ccccc21 (stereo not given) |  |  | 0.58 µM [falling, single point]
Cc1c(Cl)cnc(NC(=O)COC(=O)C(NC(=O)c2ccco2)C(C)C)c1Cl (stereo not given) | 251 | 9.2 µM [rising, partial curve] | 5.17 µM [rising, partial curve]
COCCCNc1nc2c(-c3cccc(C)c3)nnn2c2ccccc12 | 7 | 6.51 µM [rising, single point] | 6.51 µM [rising, single point]
O=C(CNCc1ccncc1)Nc1cc(S(=O)(=O)N2CCCCC2)ccc1Cl | 38.7 | 7.31 µM [rising, partial curve, poor fit] | 4.61 µM [rising, full curve, poor fit]
Cc1ccc(C)c(NC(=O)CN(C)S(=O)(=O)c2cccc3cccnc23)c1 |  |  | 29.1 µM [rising, single point]

Sorted by molar mass (smallest number first): some entries from above
Compound | cell number change [%] | AC50 [1] | AC50 [2]
CN(C)N=Nc1ccc(S(=O)(=O)NC(Cc2ccccc2)C(=O)O)cc1 (stereo not given) | 18.9 |  | 
Nn1c(Cc2cccc3ccccc23)nnc1SCC(=O)NC1CCS(=O)(=O)C1 (stereo not given) | -13.7 |  | 0.116 µM [falling, full curve]
COc1ccc(CCNC(=O)C(C)OC(=O)c2nsc(Cl)c2Cl)cc1OC (stereo not given) |  |  | 29.1 µM [falling, single point]

Next records

Compound | cell number change [%] | AC50 [1] | AC50 [2]
Cc1c(Cl)ccc2sc(NC(=O)c3ccco3)nc12 | 10.7 |  | 32.6 µM [falling, single point]
Cc1ccc(S(=O)(=O)N(Cc2cccc(C)c2)C(=O)N2CCN(C)CC2)cc1 | -75 | 18.4 µM [falling, single point] | 
COc1cccc2cc(-c3csc(NC(=O)CCC(=O)NCCCN4CCC(C)CC4)n3)c(=O)oc12 | 8.64 |  | 
Cc1cc2nnc(SCC(=O)Nc3ccc(Cl)cc3)n2c(N)n1 | 18.3 |  | 
CCOCCCNC(=O)C1CC(=O)N(CCc2ccc(C)cc2)C1 (stereo not given) |  | 2.06 µM [rising, single point] | 2.31 µM [rising, partial curve]
c1ccc2sc(NC3=NCN(Cc4ccc5c(c4)OCO5)CN3)nc2c1 | 3.28 |  | 
Cc1nn(-c2ccccc2)c(N2CCCC2)c1/C=C1\N=C(c2ccccc2)OC1=O | 34.8 | 18.4 µM [rising, single point] | 23.1 µM [rising, single point]
Cc1ccccc1OCC(O)Cn1c(N2CCCCC2)nc2c1c(=O)[nH]c(=O)n2C (stereo not given) | -7.74 |  | 6.51 µM [rising, single point]
Cc1ccnc(Nc2nc(-c3ccc(O)cc3O)cs2)c1 | -71.5 | 23.1 µM [falling, single point] | 20.6 µM [falling, single point]
CCOC(=O)c1c(NC(=O)CN2CCCCC2)sc2c1CCN(C(=O)OCC)C2 | -34.6 | 29.1 µM [falling, single point] | 29.1 µM [falling, single point]
Cc1ccc(/C=N/n2c(C)nc3ccccc3c2=O)s1 |  | 5.8 µM [rising, single point] | 
O=C(CSC1=NCCS1)Nc1ccc(S(=O)(=O)NC2CCCCC2)cc1 |  |  | 2.91 µM [falling, partial curve, poor fit]
Cc1ccc(OCc2cc(C(=O)N(C)Cc3cnn(-c4ccccc4C)c3)no2)cn1 |  |  | 29.1 µM [falling, single point]
CCCn1c2ccccc2c2cnn(CC(=O)NC3CCN(Cc4ccccc4)CC3)c(=O)c21 | 22.4 |  | 3.26 µM [rising, single point]
COc1ccc([C@]23Cc4cc(C#N)ccc4C(O2)C2=C(CC4(CCCCC4)OC2=O)O3)cc1 | 18.3 |  | 0.596 µM [rising, single point]
Cc1cccc2sc(NC(=O)C3CCN(S(=O)(=O)c4cc([N+](=O)[O-])ccc4Cl)CC3)nc12 | -17.7 |  | 11.6 µM [falling, partial curve, poor fit]
O=C(CSc1ncccn1)Nc1cc(Cl)ccc1[N+](=O)[O-] | 52.2 | 7.31 µM [rising, partial curve] | 
COc1ccccc1N1CCN(C(CNS(=O)(=O)c2ccc(C)cc2)c2cccnc2)CC1 (stereo not given) |  | 1.03 µM [rising, full curve] | 0.92 µM [rising, full curve]
COC(C(=O)Nc1cc([N+](=O)[O-])ccc1C)c1ccccc1 (stereo not given) | 26.2 |  | 35.5 µM [rising, partial curve]
